Assay results reported in patent US20230374132A1.
Where a chain is given by its changes, count along the chain named. Results are given in words; binding and its absence hold for the method and conditions named. Some results given as binding are weak or reduced against the parent protein; the word gives no strength.

The chains behind the UniProt entries cited, without tags or fusion partners. Where a name states a change or a piece, a line headed by the entry shows the natural chain unless it says otherwise.
UniProt P07766: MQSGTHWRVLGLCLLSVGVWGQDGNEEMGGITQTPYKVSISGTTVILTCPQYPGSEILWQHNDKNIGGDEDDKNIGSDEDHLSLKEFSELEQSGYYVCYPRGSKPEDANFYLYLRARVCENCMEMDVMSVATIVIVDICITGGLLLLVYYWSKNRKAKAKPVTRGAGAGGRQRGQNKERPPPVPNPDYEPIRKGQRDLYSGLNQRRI
UniProt P04234: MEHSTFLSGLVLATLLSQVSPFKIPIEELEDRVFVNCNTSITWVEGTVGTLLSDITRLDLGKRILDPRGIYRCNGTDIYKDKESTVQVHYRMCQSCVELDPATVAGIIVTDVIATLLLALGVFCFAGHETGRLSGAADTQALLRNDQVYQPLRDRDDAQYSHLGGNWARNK
UniProt P09693: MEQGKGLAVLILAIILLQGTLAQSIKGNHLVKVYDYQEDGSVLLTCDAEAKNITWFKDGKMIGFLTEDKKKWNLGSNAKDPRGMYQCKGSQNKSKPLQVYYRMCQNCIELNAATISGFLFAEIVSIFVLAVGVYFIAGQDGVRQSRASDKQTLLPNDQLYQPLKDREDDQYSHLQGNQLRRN

B1: hzsp34.87 (antibody, human IgG1, lambda, L234A L235A, V domains shown)
VH: EVQLVESGGGLVQPGGSLKLSCAASGFTFNTYAMNWVRQASGKGLEWVGRIRSKYNNYATYYADSVKDRFTISRDDSKSTLYLQMNSLKTEDTAVYYCARHYNFGQSYVSWFAYWGQGTTVTVSS
VL: QAVVTQEPSLTVSPGGTVTLTCRSSTGAVTTSNYANWVQQKPGQAPRGLIGGTNKRAPGVPARFSGSLLGDKAALTLLGAQPEDEAEYYCALWYSNLWVFGQGTKLTVLG
B2: hzsp34.97 (antibody, human IgG1, lambda, L234A L235A, V domains shown)
VH: B1 VH with Y55A, N56G, N57G, Y102G
VL: B1 VL
B3: hzsp34.101 (antibody, human IgG1, lambda, L234A L235A, V domains shown)
VH: B1 VH with Y102G, Y108A, V109A
VL: B1 VL
B4: hzsp34.116 (antibody, human IgG1, lambda, L234A L235A, V domains shown)
VH: B1 VH with Y102G
VL: B1 VL with K55S, N96D
B5: hzsp34.40 (antibody, human IgG1, kappa, L234A L235A, V domains shown)
VH: B1 VH with G49A, Y102G
VL: EIVMTQSPATLSVSPGERATLSCRSSTGAVTTSNYANWVQQKPGQAPRGLIGGTNKRAPGVPARFSGSGSGTEFTLTISSLQSEDFAVYYCALWYSNLWVFGQGTKLTVLR
B6: hzsp34.44 (antibody, human IgG1, kappa, L234A L235A, V domains shown)
VH: B1 VH with Y102G
VL: B5 VL with T72D
B7: hzsp34.45 (antibody, human IgG1, kappa, L234A L235A, V domains shown)
VH: B1 VH with G49A, Y102G
VL: B5 VL with T72D
B8: hzsp34.24 (antibody, human IgG1, lambda, L234A L235A, V domains shown)
VH: B1 VH with Y102G
VL: B1 VL

These binders were tested against T1, human CD3 complex on Jurkat cells (human) (UniProt P07766+P04234+P09693) (assay: flow cytometry on Jurkat cells (human CD3 complex), 'Jurkat cell line binding', method of Example 3.2).
B1 was tested, and the binding was “binds”. In the case of B2, the binding is reported as “binds”. For B3, the binding was “binds”. In the case of B4, the binding is reported as “binds”.

The binders below were run against T1, human CD3 complex on Jurkat cells (human) (assay: flow cytometry on Jurkat cells).
In the case of B5, the binding is reported as “binds”. B6 was tested, and the binding was “binds”. In the case of B7, the binding is reported as “binds”. For B8, the binding was “binds”. In the case of B1, the binding is reported as “binds”. In the case of B2, the binding is reported as “binds”. For B3, the binding was “binds”. B4 was tested, and the binding was “binds”.

What follows are binders tested against T1, human CD3 complex on Jurkat cells (human) (assay: flow cytometry on Jurkat cells (human CD3 complex), PE anti-human Fc secondary antibody, Example 3.2).
With B5 the binding was “binds”. B8 was tested, and the binding was “binds”.

Each binder was assayed against T1, human CD3 complex on Jurkat cells (human) (assay: flow cytometry on Jurkat cells (human CD3 complex), PE anti-human Fc secondary antibody, Example 3.2 [cont) C]).
In the case of B6, the binding is reported as “binds”. For B7, the binding was “binds”.

The binders below were run against T1, human CD3 complex on Jurkat cells (human) (assay: flow cytometry on Jurkat cells (human CD3 complex), method of Example 3.2).
For B5, the binding was “binds”. In the case of B7, the binding is reported as “binds”. B8 was tested, and the binding was “binds”. With B1 the binding was “binds”. For B2, the binding was “binds”. In the case of B3, the binding is reported as “binds”. In the case of B4, the binding is reported as “binds”.

Each binder was assayed against T1, human CD3 complex on Jurkat cells (human) (assay: flow cytometry on Jurkat cells (human CD3 complex), 'Jurkat cell line binding', Example 3.2 [cont) D]).
In the case of B5, the binding is reported as “binds”. B7 was tested, and the binding was “binds”. With B8 the binding was “binds”.
